Literature values in patent US5004758A, “Water soluble camptothecin analogs useful for inhibiting the growth of animal tumor cells” (priority 1988, dated 1991).

Details: background statement; cited from earlier work

CC[C@@]1(O)C(=O)OCc2c1cc1n(c2=O)Cc2cc3ccccc3nc2-1 [Camptothecin]
solubility in water: water-insoluble
